PubChem BioAssay AID1159584 – Peter MacCallum Cancer Centre | 2016
This is a random part of about 18,000 deposited reagents. Further read-outs or replicates are left out here. Not stated in the record: the amount of reagent, the time to read-out.

- Screen: 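Knock-downs that harm CDH1-null cells more than parental MCF10A cells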 (primary screen)
- Cell system: human MCF10A breast epithelial cells, parental and CDH1-null
- Reagent: siRNA against human genes
- Detection: 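ATP luminescence (CellTiter-Glo) viability per line relative to mean mock wells over all plates, and the ratio of CDH1-null to parental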
- Scale: CDH1-null / parental viability ratio: higher = CDH1-null cells survive relatively better than parental; CDH1-null viability vs mock: higher = more viable CDH1-null cells

| gene | CDH1-null / parental viability ratio | CDH1-null viability vs mock (fraction of mock) |
| --- | --- | --- |
| PLTP | 1.31 | 0.76 |
| MTF2 | 1.12 | 0.75 |
| FCGR2B | 0.92 | 0.93 |
| SYT2 | 0.79 | 0.54 |
| TGM1 | 0.94 | 0.66 |
| TBCK | 0.99 | 0.83 |
| CFAP54 | 1.23 | 1.03 |
| LYPD4 | 1.16 | 1 |
| CD2BP2 | 1.13 | 0.52 |
| DNAAF8 | 0.85 | 0.6 |
| OR1K1 | 1.6 | 1.15 |
| GLB1L2 | 1.3 | 0.74 |
| COL11A1 | 0.86 | 0.56 |
| WLS | 0.84 | 0.58 |
| RFPL2 | 1.02 | 0.97 |
| CBS | 1.09 | 1.01 |
| KLHDC7B | 1.13 | 0.71 |
| CABP2 | 0.98 | 0.9 |
| FAM209A | 0.9 | 0.56 |
| PCDHB5 | 1.06 | 0.68 |
| TSGA10 | 1.14 | 0.74 |
| LUM | 1.15 | 0.94 |
| MSANTD4 | 0.84 | 1.02 |
| MRPL34 | 1.23 | 0.76 |
| OBSL1 | 1.07 | 0.61 |
| P4HA2 | 1.12 | 0.94 |
| AARS1 | 0.87 | 0.68 |
| PLBD2 | 0.9 | 0.69 |
| ZNF595 | 1.19 | 0.96 |
| RSPH10B | 1.34 | 0.78 |
| GAN | 0.81 | 0.66 |
| EFCAB12 | 0.79 | 0.6 |
| GLP1R | 1.25 | 0.91 |
| ATG4A | 1.22 | 0.95 |
| SMO | 1.33 | 1 |
| HDGFL3 | 0.89 | 0.73 |
| ATP5MC2 | 0.85 | 0.85 |
| PTDSS2 | 1.17 | 0.97 |
| EPC2 | 0.79 | 0.54 |
| TIMP3 | 0.86 | 0.76 |
| OTUD7A | 0.76 | 0.22 |
| HDDC3 | 0.94 | 0.74 |
| NCBP3 | 0.88 | 0.9 |
| DCHS1 | 0.93 | 0.54 |
| ZNF548 | 0.69 | 0.54 |
| WDR62 | 0.79 | 0.41 |
